Source: PubChem BioAssay (NCATS)
The shares of active, inactive and inconclusive entries below differ from those in the screen. For some assays here: Potencies of inconclusive entries are doubtful fits and often do not repeat. Active and inactive are the calls of the source. Calls come from the whole dose curve; as a rule, active = well fitted curve in the direction sought with a large enough effect; inconclusive = small, poorly fitted or top-dose-only effect, or another doubt; inactive = no such curve, though single readings can be large; an effect the other way counts as inactive or inconclusive.

What was measured:
[1] = Quantitative High-Throughput drug screen in 47 multiple myeloma cell lines against the NCATS MIPE library collection: JIM3_ECACC cell viability assay (AID 1918963; note: nearly all actives have a fitted effect of over 35% in size; note: potency is the fitted concentration of half-maximal effect); conditions: JIM3 myeloma viability, CellTiter-Glo ATP, 48 h; viability, percent of control: at 45.8 µM (top of the series) unless noted
In short: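 Viability readout: CellTiter-Glo luminescence following 5 min room-temperature incubation with reagent. Prior exposure: 48 h, 37C, humidified 5% CO2, 500 cells per well.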

[2] = Quantitative High-Throughput drug screen in 47 multiple myeloma cell lines against the NCATS MIPE library collection: JIM1_ECACC cell viability assay (AID 1918964; note: potency is the fitted concentration of half-maximal effect); conditions: JIM1 myeloma viability, CellTiter-Glo ATP luminescence, 48 h; viability (% of DMSO): at 45.8 µM (top of the series)
In short: (§1)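 CellTiter-Glo ATP luminescence gave viability after 48 h compound treatment at 37C of 500 multiple myeloma cells per well. Normalisation used DMSO-only wells as 100% and media-only wells as 0% viability; primary qHTS of approved and investigational drugs.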

[3] = Quantitative High-Throughput drug screen in 47 multiple myeloma cell lines against the NCATS MIPE library collection: INA6_PLB cell viability assay (AID 1918965; note: nearly all actives have a fitted effect of over 55% in size; note: potency is the fitted concentration of half-maximal effect); conditions: INA6 myeloma viability, CellTiter-Glo ATP luminescence, 48 h; viability (% of control): at 45.8 µM (top of the series)
In short: (§2)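 Approved and investigational drugs from MIPE 4.0 were added by pin tool to 500 cells per well. After 48 hours at 37C, ATP-based CellTiter-Glo luminescence indicated remaining viability.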

[4] = Quantitative High-Throughput drug screen in 47 multiple myeloma cell lines against the NCATS MIPE library collection: JJN3_DSMZ cell viability assay (AID 1918966; note: nearly all actives have a fitted effect of over 50% in size; note: potency is the fitted concentration of half-maximal effect); conditions: JJN3 myeloma cells viability, CellTiter-Glo ATP, 48 h; viability, % of DMSO: at 45.8 µM (top of the series)
In short: as §1

[5] = Quantitative High-Throughput drug screen in 47 multiple myeloma cell lines against the NCATS MIPE library collection: KMS27_JCRB cell viability assay (AID 1918970); conditions: KMS27 myeloma cells, CellTiter-Glo ATP viability, 48 h; viability (% of DMSO): at 45.8 µM (top of the series); note: potency is the fitted concentration of half-maximal effect; nearly all actives have a fitted effect of over 30% in size
In short: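 Each line is seeded at 500 cells per well and treated with library compounds for 48 hours under 37 °C, 5% CO2. CellTiter-Glo is then added for 5 min at room temperature before median relative luminescence is recorded.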

[6] = Quantitative High-Throughput drug screen in 47 multiple myeloma cell lines against the NCATS MIPE library collection: KMS12BM_JCRB cell viability assay (AID 1918971); note: potency is the fitted concentration of half-maximal effect; nearly all actives have a fitted effect of over 35% in size
In short: (§3)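 Myeloma cell lines, 500 cells per well, exposed to MIPE 4.0 library compounds for 48 h at 37C, 5% CO2. Viability from ATP by CellTiter-Glo luminescence; normalised to DMSO (100%) and media-only (0%) wells.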

[7] = Quantitative High-Throughput drug screen in 47 multiple myeloma cell lines against the NCATS MIPE library collection: KMS12PE_JCRB cell viability assay (AID 1918972); conditions: KMS12PE myeloma viability, CellTiter-Glo ATP, 48 h; viability: at 45.8 µM (top of the series); note: potency is the fitted concentration of half-maximal effect; nearly all actives have a fitted effect of over 30% in size
In short: as §2

[8] = Quantitative High-Throughput drug screen in 47 multiple myeloma cell lines against the NCATS MIPE library collection: KMS20_JCRB cell viability assay (AID 1918973); conditions: CellTiter-Glo ATP, 48 h; viability (% of DMSO): at 45.8 µM (top of the series); note: nearly all actives have a fitted effect of over 45% in size; note: potency is the fitted concentration of half-maximal effect
In short: as §1

[9] = Quantitative High-Throughput drug screen in 47 multiple myeloma cell lines against the NCATS MIPE library collection: MOLP8_DSMZ cell viability assay (AID 1918977); conditions: MOLP8 myeloma viability, CellTiter-Glo ATP luminescence, 48 h; viability (% of control): at 45.8 µM (top of the series); note: nearly all actives have a fitted effect of over 45% in size; note: potency is the fitted concentration of half-maximal effect
In short: (§4)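 MIPE 4.0 approved/investigational drugs; 500 cells/well; 48 h 37 °C humidified 5% CO2; CTG luminescence readout; DMSO = 100%, media = 0% viability.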

[10] = Quantitative High-Throughput drug screen in 47 multiple myeloma cell lines against the NCATS MIPE library collection: NCIH929_DSMZ cell viability assay (AID 1918978); note: nearly all actives have a fitted effect of over 35% in size; note: potency is the fitted concentration of half-maximal effect
In short: as §4

[11] = Quantitative High-Throughput drug screen in 47 multiple myeloma cell lines against the NCATS MIPE library collection: OCIMY1_PLB cell viability assay (AID 1918979); note: nearly all actives have a fitted effect of over 35% in size
In short: as §4

[12] = Quantitative High-Throughput drug screen in 47 multiple myeloma cell lines against the NCATS MIPE library collection: MM1S_ATCC cell viability assay (AID 1918980); note: potency is the fitted concentration of half-maximal effect; nearly all actives have a fitted effect of over 45% in size
In short: as §4

[13] = Quantitative High-Throughput drug screen in 47 multiple myeloma cell lines against the NCATS MIPE library collection: LP1_DSMZ cell viability assay (AID 1918982); note: nearly all actives have a fitted effect of over 35% in size; note: potency is the fitted concentration of half-maximal effect
In short: as §4

[14] = Quantitative High-Throughput drug screen in 47 multiple myeloma cell lines against the NCATS MIPE library collection: H1112_PLB cell viability assay (AID 1918967; note: potency is the fitted concentration of half-maximal effect; nearly all actives have a fitted effect of over 30% in size); conditions: H1112 myeloma cells viability, ATP luminescence, 48 h; viability: at 45.8 µM (top of the series)
In short: as §1

[15] = Quantitative High-Throughput drug screen in 47 multiple myeloma cell lines against the NCATS MIPE library collection: Karpas25_ECACC cell viability assay (AID 1918968; note: nearly all actives have a fitted effect of over 35% in size); conditions: Karpas25 myeloma viability, CellTiter-Glo ATP, 48 h; viability (% of control): at 45.8 µM (top of the series)
In short: as §1

[16] = Quantitative High-Throughput drug screen in 47 multiple myeloma cell lines against the NCATS MIPE library collection: KMS21BM_JCRB cell viability assay (AID 1918974); conditions: ATP luminescence, 48 h; viability: at 45.8 µM (top of the series) unless noted; note: potency is the fitted concentration of half-maximal effect
In short: as §1

[17] = Quantitative High-Throughput drug screen in 47 multiple myeloma cell lines against the NCATS MIPE library collection: KMS28PE_JCRB cell viability assay (AID 1918983)
In short: as §4

[18] = Quantitative High-Throughput drug screen in 47 multiple myeloma cell lines against the NCATS MIPE library collection: KMS26_JCRB cell viability assay (AID 1918975); conditions: KMS26 myeloma cells viability, CellTiter-Glo ATP, 48 h; viability (% of DMSO): at 45.8 µM (top of the series); note: potency is the fitted concentration of half-maximal effect; nearly all actives have a fitted effect of over 45% in size
In short: as §3

[19] = Quantitative High-Throughput drug screen in 47 multiple myeloma cell lines against the NCATS MIPE library collection: MM1R_ATCC cell viability assay (AID 1918981)
In short: as §4

[20] = Quantitative High-Throughput drug screen in 47 multiple myeloma cell lines against the NCATS MIPE library collection: MMM1_PLB cell viability assay (AID 1918976)
In short: as §4

c1coc(CNc2ncnc3nc[nH]c23)c1
inactive: Potency [3] | Potency [8] | Potency [10] | Potency [11] | Potency [13]
inconclusive: Potency [1] 18.7 µM [cytotoxic, partial curve, poor fit] | viability (% of DMSO) [2] 69.1% [cytotoxic] | Potency [4] 10.5 µM [cytotoxic, partial curve, poor fit] | Potency [5] 1.5 nM [cytotoxic, full curve, poor fit] | Potency [6] 1.2 nM [cytotoxic, full curve, poor fit] | Potency [7] 20.9 µM [cytotoxic, partial curve, poor fit] | Potency [9] 23.5 µM [cytotoxic, partial curve, poor fit] | Potency [12] 37.2 µM [cytotoxic, single point]

N#CNC(=NCCCCCCOc1ccc(Cl)cc1)Nc1ccncc1
inactive: Potency [15]
active: Potency [2] 0.0296 µM | Potency [5] 1 nM | Potency [6] 11.8 nM | Potency [12] 0.0059 µM | Potency [13] 0.0187 µM | Potency [17] 0.132 µM
inconclusive: Potency [1] 0.0019 µM [cytotoxic, full curve] | Potency [3] 0.0418 µM [cytotoxic, partial curve, poor fit] | Potency [14] 2.3 nM [cytotoxic, full curve] | viability [16] 5.49% [cytotoxic] | Potency [10] 0.0017 µM [cytotoxic, full curve]

Clc1ccccc1C(c1ccccc1)(c1ccccc1)n1ccnc1
inconclusive: Potency [4] 14.8 µM [cytotoxic, partial curve, poor fit] | Potency [5] 6620 nM [cytotoxic, partial curve, poor fit] | Potency [8] 20.9 µM [cytotoxic, partial curve, poor fit] | Potency [16] 37.2 µM [rising, partial curve] | Potency [18] 1.2 nM [rising, full curve, poor fit] | Potency [9] 16.6 µM [cytotoxic, partial curve, poor fit] | Potency [10] 18.7 µM [cytotoxic, partial curve] | Potency [12] 20.9 µM [cytotoxic, single point] | Potency [19] 23.5 µM [cytotoxic, single point] | Potency [13] 20.9 µM [cytotoxic, partial curve] | Potency [17] 33.2 µM [cytotoxic, single point]
active: Potency [1] 18.7 µM | Potency [2] 0.0743 µM | Potency [3] 16.6 µM | Potency [6] 16600 nM | Potency [7] 7.43 µM

Cc1ccc(Nc2cc(-c3cccc(N4C(=O)c5ccccc5C4=O)c3)ncn2)cc1NS(C)(=O)=O
active: Potency [1] 18.7 µM | Potency [3] 16.6 µM | Potency [4] 18.7 µM | Potency [8] 26.4 µM | Potency [12] 20.9 µM | Potency [19] 23.5 µM
inconclusive: Potency [2] 33.2 µM [cytotoxic, single point] | Potency [17] 33.2 µM [cytotoxic, single point]
inactive: Potency [11]

CCCN[C@H]1CCc2nc(N)sc2C1
inconclusive: Potency [6] 1 nM | Potency [7] 18.7 µM [cytotoxic, partial curve, poor fit] | Potency [16] 33.2 µM [cytotoxic, partial curve, poor fit] | Potency [18] 418 nM [cytotoxic, full curve, poor fit] | Potency [20] 1.32 µM [cytotoxic, full curve, poor fit] | Potency [19] 7.43 µM [cytotoxic, partial curve]
inactive: Potency [1] | Potency [2] | Potency [3] | Potency [4] | Potency [8] | Potency [9] | Potency [11]

NC(=O)c1ccc(I)c([N+](=O)[O-])c1
inactive: Potency [13]
active: Potency [1] 18.7 µM
inconclusive: Potency [2] 20.9 µM [cytotoxic, partial curve, poor fit] | Potency [3] 29.6 µM [cytotoxic, partial curve, poor fit] | Potency [4] 0.0418 µM [rising, full curve, poor fit] | Potency [6] 26400 nM [cytotoxic, single point] | Potency [7] 23.5 µM [cytotoxic, partial curve, poor fit] | Potency [8] 26.4 µM [cytotoxic, partial curve, poor fit] | Potency [18] 1.9 nM [cytotoxic, full curve, poor fit] | Potency [20] 0.0148 µM [rising, full curve] | Potency [9] 1.05 µM [cytotoxic, full curve, poor fit]
